Results from PubChem BioAssay AID328 (DTP/NCI, 2004).
The list is a part of this screen's results and no random one: it gathers tests that were run many times, whatever their T/C, doses with no T/C, and many T/C values between a quarter and a half above the control. Other doses and runs of a compound stand elsewhere. T/C is the treated group as % of the vehicle group. Some entries give survivors of the animals treated and no T/C: the source files T/C as zero there, which appears to mark a toxic dose or a test without result, not a measured value. Some survivor counts are full or nearly so, which does not show that the dose was tolerated: the source hardly ever lists a survival T/C far under the control, and the zero likely stands for such cases as well. Survivors were counted at the toxicity check, usually on the fifth day, unless a day is given; later deaths do not show. Schedule codes are those of the source, taken here to give the interval after Q, in days (D) or hours (H), and the number of doses after X. Where survival is the endpoint, this PubChem deposit counts one and a half times the control or more as active, and values a quarter to a half above the control carry no call in these data; other NCI protocols may use other cut-offs.

Tested on: BDF1 mice, P388 leukemia ip, median survival T/C
Assay: NCI In Vivo Anticancer Drug Screen. Data for tumor model P388 Leukemia (intraperitoneal) in B6D2F1 (BDF1) mice
Conditions: T/C endpoint: median survival time, higher T/C = longer survival
Outline: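 Steps: implant the tumour, treat one group with compound and another with vehicle, record survival, then divide treated by control.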

[1] = dose: 100.0 mg/kg/injection, schedule: Q01DX009 (ip), vehicle: saline with Tween-80
[2] = dose: 200.0 mg/kg/injection, schedule: Q01DX009 (ip), vehicle: saline with Tween-80

Question: Which survivor count (dose: 400.0 mg/kg/injection, schedule: Q04DX003 (ip), vehicle: saline with Tween-80) does the source give for CC(=O)C1C(=O)C(=O)OC1C (centres undefined) here?
Answer: 6 of 6

Question: Which results are given for COc1cccc2c1C(=O)c1c(O)c3c(c(O)c1C2=O)C[C@@](O)(/C(C)=N/NC(=O)c1cccc([N+](=O)[O-])c1)C[C@@H]3OC1CC(N)C(O)C(C)O1 (some centres undefined)?
Answer: T/C (dose: 0.25 mg/kg/injection, schedule: Q01DX009 (ip), vehicle: water): 135 % of control; T/C (dose: 0.5 mg/kg/injection, schedule: Q01DX009 (ip), vehicle: water): 137 % of control

Question: What does the source list for COc1ccc(Nc2c3ccccc3nc3ccccc23)cc1?
Answer: survivor count [1]: 5 of 6; survivor count [2]: 4 of 6; survivor count (dose: 400.0 mg/kg/injection, schedule: Q01DX009 (ip), vehicle: saline with Tween-80): 0 of 6

Question: How did the survivor count (dose: 25.0 mg/kg/injection, schedule: Q01DX009 (ip), vehicle: DMSO) turn out when C=CC(c1ccccc1)C(O)(Cc1ccccc1)Cc1ccccc1 (centres undefined) was run?
Answer: 6 of 6

Question: For CC1=CC(=O)NC1O (centres undefined), which survivor count (dose: 5.0 mg/kg/injection, schedule: Q01DX010 (ip), vehicle: saline) is on record?
Answer: 4 of 4

Question: Which survivor count (dose: 200.0 mg/kg/injection, schedule: Q01DX009 (ip), vehicle: Klucel (hydroxypropylcellulose) (HPC)) does the source give for CN(C)c1ccc(C(=O)c2ccccc2)cc1 here?
Answer: 6 of 6

Question: And the survivor count (dose: 400.0 mg/kg/injection, schedule: Q01DX009 (ip), vehicle: Klucel (hydroxypropylcellulose) (HPC))?
Answer: 5 of 6

Question: For O=C1C=CC(=O)N1c1ccc([N+](=O)[O-])cc1, which survivor count (dose: 21.0 mg/kg/injection, schedule: Q01DX009 (ip), vehicle: Klucel (hydroxypropylcellulose) (HPC)) is on record?
Answer: 2 of 6

Question: And the survivor count (dose: 30.0 mg/kg/injection, schedule: Q04DX003 (ip), vehicle: Klucel (hydroxypropylcellulose) (HPC))?
Answer: 1 of 6

Question: And the survivor count (dose: 50.0 mg/kg/injection, schedule: Q01DX009 (ip), vehicle: saline with Tween-80)?
Answer: 5 of 6

Question: And the survivor count [1]?
Answer: 2 of 6

Question: And the survivor count [2]?
Answer: 0 of 6

Question: With CC(C)=CCC/C(C)=C/Cn1cnc2c(ncn2C2OC(CO)C(O)C2O)c1=O (centres undefined) as the compound, how does the survivor count (dose: 100.0 mg/kg/injection, schedule: Q04DX003 (ip), vehicle: saline) read?
Answer: 5 of 6

Question: And the survivor count (dose: 200.0 mg/kg/injection, schedule: Q04DX003 (ip), vehicle: saline)?
Answer: 2 of 6

Question: What about the survivor count (dose: 400.0 mg/kg/injection, schedule: Q04DX003 (ip), vehicle: saline) of the same compound?
Answer: 0 of 6

Question: With CC(C)CC(C(=O)NC1C(=O)NC(Cc2c[nH]c3ccccc23)C(=O)N/C=C\c2ccc(cc2)OC1C(C)C)N(C)C (centres undefined) as the compound, how does the T/C (dose: 0.4 mg/kg/injection, schedule: Q01DX010 (ip), vehicle: alcohol) read?
Answer: 140 % of control
